The values below come from paper PMC7819943, “Rice protein-binding microarrays: a tool to detect cis-acting elements near promoter regions in rice”.

The chains behind the UniProt entries cited, without tags or fusion partners.
UniProt Q0JBA9, entry or part of it: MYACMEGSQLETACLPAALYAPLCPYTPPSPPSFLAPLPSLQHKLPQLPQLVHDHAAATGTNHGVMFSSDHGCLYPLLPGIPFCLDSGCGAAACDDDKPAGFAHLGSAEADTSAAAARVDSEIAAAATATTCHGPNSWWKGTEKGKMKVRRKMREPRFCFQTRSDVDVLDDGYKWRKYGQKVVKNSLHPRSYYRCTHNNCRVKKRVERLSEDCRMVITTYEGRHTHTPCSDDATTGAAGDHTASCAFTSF

The other results are listed elsewhere or left out.

This test deals with OsWRKY34 (Oryza sativa, UniProt Q0JBA9 1-250). Description: protein-binding microarray (RPBM); PBS, 2% BSA, 51.3 ng/ul salmon testes DNA, 50 uM zinc acetate, 200 nM TF, 25 C, 1 h; high values mean tight binding. Conditions: protein: recombinant; tags: N-terminal polyhistidine and DsRed monomer fusion (pET32a); label: CyDye5-dUTP incorporated in the synthesized complementary strand; 3' TTTTT single-stranded linker to array surface; dsDNA, one strand shown. The method, boiled down:
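The binding signal is fluorescence intensity per array feature (arbitrary units). Readings came from an Axon 4000B scanner after a washed, 2% BSA-blocked, double-stranded custom Agilent array had been incubated for 1 h at 25 °C with 200 nM protein and 50 µM zinc acetate. The protein was a Ni–NTA-purified transcription factor fused N-terminally to polyhistidine and DsRed, expressed in E. coli BL21-CodonPlus.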
For “TGGGCTGGGGCTGCTGGGAGGGGTCGGGCCTTCCTTGCACCGGAGTCACCTAGTGCAG”, the binding signal is 13300 fluorescence intensity (a.u.).
To “CTTATGGTCATCCTTTATCTCCATTAGGGAAGTCATCCCCCGGAGTCACCTAGTGCAG” belongs 8540 fluorescence intensity (a.u.); to “TGGTGGTAGTGTGTGTTGGTGTCATAAATACTAAATAAGACGGAGTCACCTAGTGCAG”, 8060 fluorescence intensity (a.u.); to “TGATTTGATTTGGTTTTTTTCTTTGCTTGATTACTTCCTTCGGAGTCACCTAGTGCAG”, 12300 fluorescence intensity (a.u.).
Consider “CCTCCTCCTGCCGTCGTCCCCGCTGCTGCGCGCGACGCTCCGGAGTCACCTAGTGCAG”, for which the binding signal was 8300 fluorescence intensity (a.u.).
Under “TGCTTTTTTCTTTTTATTATATCTATCGGATTTTAATACACGGAGTCACCTAGTGCAG” stands 8410 fluorescence intensity (a.u.); under “TGGGGTTTTCAGCTTGCCAATGCTGCATTATCTTCTTTTTCGGAGTCACCTAGTGCAG”, 17200 fluorescence intensity (a.u.); under “TGCAAACTTGCATACCTGTATGTTCTTTGTTTATTTTTTCCGGAGTCACCTAGTGCAG”, 8480 fluorescence intensity (a.u.).
To “GTGACCGTTTTGAGCCGTCCGTGCAGGCGTGCATTCACCACGGAGTCACCTAGTGCAG” belongs 8200 fluorescence intensity (a.u.); to “CCCCACTTGCCAGTATTGAAATGAGCTGCGCACCTACCCTCGGAGTCACCTAGTGCAG”, 8360 fluorescence intensity (a.u.).
For the sequence “CCCCATCATCCGAGCAATCTCGGCCGTCCAATCTCCCCACCGGAGTCACCTAGTGCAG”, the binding signal was 8450 fluorescence intensity (a.u.).
For “AAACACCACATTCATTTACAAATATTTCCCTCGACTTCCTCGGAGTCACCTAGTGCAG”, the binding signal is 8250 fluorescence intensity (a.u.).
For the sequence “GGTCTACTTATATATTGTGGAGGTGGTTCTTATAGCTATCCGGAGTCACCTAGTGCAG”, the binding signal is 8220 fluorescence intensity (a.u.).
As for “TTCTTTCTTTCTTTCTTCTTTCCCTGTTCTGTCTTTCTTCCGGAGTCACCTAGTGCAG”, the binding signal was 13100 fluorescence intensity (a.u.).
To “ACATGCCCTTGAATCGAATCAATATCTTTGTGTCTGTCTGCGGAGTCACCTAGTGCAG” belongs 11600 fluorescence intensity (a.u.); to “ACCGTTCGTCCGTTCCGCTCTTCCGCTCCAGTCTCCACCGCGGAGTCACCTAGTGCAG”, 12300 fluorescence intensity (a.u.); to “TAACAAATAATGATACAGTCTTCTTATTTTGTCTCTTTTCCGGAGTCACCTAGTGCAG”, 8040 fluorescence intensity (a.u.).
To “CCGTCCCGACCCATCTCCTTCACCCGCCGCCGCCGCCTGCCGGAGTCACCTAGTGCAG” belongs 12400 fluorescence intensity (a.u.).
To “ACTTATCTATGGGCCAACATTGTTCTCCTCCTAATGTGCTCGGAGTCACCTAGTGCAG” belongs 8320 fluorescence intensity (a.u.); to “GTTTTAAAATGGTTGACACCGTTGACTTTTTAGCACGTGTCGGAGTCACCTAGTGCAG”, 30100 fluorescence intensity (a.u.).
Consider “GATCCGCTCGCCCCGCCGCGCCGCCGACCATCGCCATCGCCGGAGTCACCTAGTGCAG”, for which the binding signal was 8410 fluorescence intensity (a.u.).
Turning to “TGATACTCTAAAGATTTTTCCTGAGCTGTACGTTCTGTTTCGGAGTCACCTAGTGCAG”, the binding signal was 8230 fluorescence intensity (a.u.).
As for “GGAGTTTTTTTTTTCATTTTCTTTTTTACCGTTTGTAATTCGGAGTCACCTAGTGCAG”, the binding signal was 12500 fluorescence intensity (a.u.).
Under “TCCCTGTAACCGTACTGCACATCACGTCATCCATTTAAGACGGAGTCACCTAGTGCAG” stands 9390 fluorescence intensity (a.u.).
With “GGCGGGGTGGCTGTTGTCGACGTCGTGGTGGTCGGCGTCGCGGAGTCACCTAGTGCAG”, the binding signal was 14900 fluorescence intensity (a.u.).
For the sequence “TTGATGGGGTTCCTTGGTTGGTGTTTGATCTCAGATCTGTCGGAGTCACCTAGTGCAG”, the binding signal is 11400 fluorescence intensity (a.u.).
To “ATTTTCCTAGCTTTTTTATCTCGTTTTCTATGTGCACGCTCGGAGTCACCTAGTGCAG” belongs 10100 fluorescence intensity (a.u.); to “CACCGTTGTTCCTCCTCAACACGCGCCACTCCTCACATTCCGGAGTCACCTAGTGCAG”, 9230 fluorescence intensity (a.u.); to “CACTTTGGCACTCGTCCATGCCTCATTTTTTCCCCTTCCGCGGAGTCACCTAGTGCAG”, 8950 fluorescence intensity (a.u.).
To “TATATAATTTGTCGTCATTATACACCGTTGTTAGCCTCCACGGAGTCACCTAGTGCAG” belongs 9360 fluorescence intensity (a.u.).
Under “GGAGTGAGTTTGTTTCGTATTCCGCGCGCACGCTTCCCGACGGAGTCACCTAGTGCAG” stands 9780 fluorescence intensity (a.u.); under “CGTCCATCCCCAGTCAAGTTCGCCGCGCGCAACACTCGCACGGAGTCACCTAGTGCAG”, 8220 fluorescence intensity (a.u.).
Take “CCATTTTTTTTTCAGAGTTTATAGTTTCATTTTGATTCTTCGGAGTCACCTAGTGCAG”: the binding signal was 8150 fluorescence intensity (a.u.).
As to “TCTAATATTTCCGGGCCCTTTTTACACATGGGCGCCCACGCGGAGTCACCTAGTGCAG”, the binding signal was 9050 fluorescence intensity (a.u.).
Under “ACCGCACCTCACCAAAATCTCCATCCATCCGTCTGAATCCCGGAGTCACCTAGTGCAG” stands 9110 fluorescence intensity (a.u.); under “GACTTTTACTGCACACACCTCGCAACTTGTTTCTCAGACTCGGAGTCACCTAGTGCAG”, 12200 fluorescence intensity (a.u.).
As to “CCGACATGGCCGTGTTCGATCTTGCCCGCGTTAATTAGCACGGAGTCACCTAGTGCAG”, the binding signal was 8460 fluorescence intensity (a.u.).
Turning to “GTAGTCCTTGGTCCTCGCCGGCACGTCCTTCCACATGGCCCGGAGTCACCTAGTGCAG”, the binding signal is 8260 fluorescence intensity (a.u.).
Under “TTTCCGCCGCGGCGAGGAGGAGGAGGAGGAGGAGGGGCGACGGAGTCACCTAGTGCAG” stands 9980 fluorescence intensity (a.u.); under “GAGGGACGTCCTCGCACGATCGCCGTTCATCCCGCATCCACGGAGTCACCTAGTGCAG”, 8710 fluorescence intensity (a.u.); under “AGAGATGGGAGGGGAGGGAGAGAGAGACGAGAGAGATTGACGGAGTCACCTAGTGCAG”, 10300 fluorescence intensity (a.u.).
Regarding “TATGTTTTTATTGGTTTAAATAGTTAATCTCAATATTCTGCGGAGTCACCTAGTGCAG”, the binding signal is 8550 fluorescence intensity (a.u.).
As to “AAGCGCCTGGTAGCGGAGAGTGGGAAAGAGCTGGCTGGCGCGGAGTCACCTAGTGCAG”, the binding signal is 60400 fluorescence intensity (a.u.).
Under “ATCCCAAACACTCTCGCCTCGTCTCCTCTCACACCACACGCGGAGTCACCTAGTGCAG” stands 10500 fluorescence intensity (a.u.); under “ACCGTCCCCGCAGGCAAGCCAGCCCAAATGCCTCGAATAACGGAGTCACCTAGTGCAG”, 8120 fluorescence intensity (a.u.); under “CACATGTTTTTTCTGTGTAACCATCTGTTTCTGAATTCTGCGGAGTCACCTAGTGCAG”, 8420 fluorescence intensity (a.u.).
For the sequence “GTTTTCATTATTAATGTTGATTCACTTGTATTTTTCCATACGGAGTCACCTAGTGCAG”, the binding signal is 10300 fluorescence intensity (a.u.).
“TCCCGATCGCTTCAATCATTGATCACCAAAGACACGCTAGCGGAGTCACCTAGTGCAG”: the binding signal was 8120 fluorescence intensity (a.u.).
Under “TGTAATCTTACCTCTTTGCTGTTTTCATCTATTAAATTTCCGGAGTCACCTAGTGCAG” stands 10400 fluorescence intensity (a.u.); under “AATCGCATGTAAGGTTATTATGGTTTCAGTCATGTGTTCGCGGAGTCACCTAGTGCAG”, 10400 fluorescence intensity (a.u.).
For the sequence “TAACTTAACGTGATTTTCCTGTATGGACCTTAATTATGTTCGGAGTCACCTAGTGCAG”, the binding signal was 8580 fluorescence intensity (a.u.).
As for “ATAATATTATACTGTACTTTGCTCGCTCATTTTCACACCCCGGAGTCACCTAGTGCAG”, the binding signal was 9060 fluorescence intensity (a.u.).
As for “CAATGTACTACTGCTTATACTACCTCCGTCCCAAAATAAGCGGAGTCACCTAGTGCAG”, the binding signal was 11300 fluorescence intensity (a.u.).
As for “TCGGTGGGTGGTTGGGGATATTGCAAAAAGTATATAAAAACGGAGTCACCTAGTGCAG”, the binding signal is 15800 fluorescence intensity (a.u.).
